Measured values reported in paper PMC9458460.
For some assays here: A negative result means that nothing was seen under these conditions. For some assays here: The comparison behind a weaker result is the experiment's own reference, which may not be listed here. For some assays here: The exact form of at least one protein or probe is not confirmed. For some assays here: At least one verdict was read from the data and is not stated in words by the source.

What was measured:
LARP1 LaM [1] = experiment: ITC; details: 10 mM MES pH 6.3, 100 mM NaCl, 1 mM TCEP (HPLC and NMR buffer; ITC buffer not stated separately), ITC 293 K, NMR 25 C, recombinant protein, residues 323-410, protein details: N-terminal MGSSHHHHHHS
LARP1 LaM [2] = experiment: crystal structure; details: 10 mM MES pH 6.3, 100 mM NaCl, 1 mM TCEP (HPLC and NMR buffer); recombinant protein; residues 323-410; protein details: N-terminal MGSSHHHHHHS

Sequence	binding result (LARP1 LaM [2])	binding result (LARP1 LaM [1])	also measured
AAAAAA [A5A(2'-OMe)]	–	–	binding result (LARP1 LaM [1]; 2'-O-methyl on 3'-terminal A, synthetic backbone): no binding
AAAAAAAAAAA [A11]	binds	–	–
AAAAAU [A5U]	–	binds more weakly	–
AAAAUA [A4UA]	–	binds more weakly	–
AAAUAA [A3UA2]	binds	–	–
